Results taken from patent US20090011974A1, “Scavenger Receptor B1 (Cla-1) Targeting for the Treatment of Infection, Sepsis and Inflammation” (priority 2002, published 2009).
These are yes or no findings as the source states them, for the method shown. A result given as binding can be weak or reduced; the word gives no strength.

Target: T1, Scavenger receptor BI (SR-BI/CLA-1) of mouse RAW 264.7 monocyte-macrophages (mouse) (UniProt Q61009)
T1 sequence (looked up): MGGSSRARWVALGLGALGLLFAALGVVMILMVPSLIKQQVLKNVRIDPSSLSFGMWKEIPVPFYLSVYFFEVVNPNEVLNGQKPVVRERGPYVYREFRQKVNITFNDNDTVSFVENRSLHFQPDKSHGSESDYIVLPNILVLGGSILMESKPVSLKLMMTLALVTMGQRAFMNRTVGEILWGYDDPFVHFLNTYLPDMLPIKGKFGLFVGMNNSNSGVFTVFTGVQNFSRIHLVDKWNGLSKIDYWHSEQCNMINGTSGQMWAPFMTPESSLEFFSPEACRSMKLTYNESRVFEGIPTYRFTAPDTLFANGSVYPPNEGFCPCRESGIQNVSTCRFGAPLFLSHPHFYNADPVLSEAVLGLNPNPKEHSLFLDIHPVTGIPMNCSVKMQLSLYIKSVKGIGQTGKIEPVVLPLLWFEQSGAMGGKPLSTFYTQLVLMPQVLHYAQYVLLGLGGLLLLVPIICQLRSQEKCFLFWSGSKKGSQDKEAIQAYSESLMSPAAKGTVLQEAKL
Assay: 125I-HDL competition binding on ice on RAW 264.7 cells (endogenous SR-BI)

binding: binds
Substance: Human apoE-free high-density lipoprotein HDL2+3 (1.072<d<1.216)
